According to US20250135009A1, “INTRATYMPANIC DRUG CONTROLLED RELEASE-TYPE FORMULATION COMPRISING N-ACYLATED GLYCOL CHITOSAN” (The Industry & Academic Cooperation in Chungnam National …, priority 2021, published 2025):

Experiment: Drug concentration in cochlear perilymph by LC-MS/MS
Type: in vivo, guinea pig
Description: All animal experiments were approved by the Chungnam National University Committee of Animal Experiments (202006A-CNU-085). Ninety eight male albino guinea pigs, each weighing 200 to 250 g, were used in this study. To analyze the residual stability of the HGC thermogel after injection into the middle ear, twenty animals were used to perform micro-computed tomography (CT) and magnetic resonance imaging (MRI) at various injection time points (1, 3, 7, 14, and 21 days) and to perform histopathological analysis. Seventy two animals were used for perilymph sampling at various time points (30 minutes, 90 minutes, 3 hours, 1 day, 3 days, and 7 days) after middle ear injection of the HGC thermogel. Other six animals were used as normal controls for CT and T2-weighed MRI (N=4) and used for histopathological studies after intratympanic injection of saline on day 21 (N=2).
Before surgery, animals were anesthetized by intramuscular injection of alfaxan (15 mg/mL, Careside) and Rumpun (23 mg/mL, Careside). In addition, 0.5 ml of 1% lidocaine was injected subcutaneously into the postauricular area for local anesthesia. The anesthetized animals were placed in a prone position on a thermoregulated heated pad. After incising the retro auricular, the temporal bone was exposed and the round window membrane was visualized with a surgical microscope (Carl Zeiss OPMI f 170 Surgical Tilting Head connected to a Hitachi KP-D50 color digital microscope camera). Each of the HGC-DSP and HGC-DEX thermogel formulations (sample volume=100 μL, drug concentration=5 mg/mL (corresponding to 0.5 wt %)) was administered to the tympanic membrane using a 26 gauge needle. After injection, the needle was carefully removed, dental cement (Durelon™ Carboxylate Luting Cement, 3M) was applied to the area, and the skin incision was sutured. No animals were sacrificed in this series of experiments.
To assess the concentration of DEX in cochlear perilymph, perilymph sampling was performed at various time points (30 minutes, 90 minutes, 3 hours, 1 day, 3 days, and 7 days) after intratympanic injection of the DEX-loaded HGC thermogel. Under anesthesia, the temporal bone was removed, and the tympanic bulla was washed with 10 mL of saline. Small apical cochleostomy was performed using a sharp pick, and perilymph was collected in hand-held graduated glass capillary tubes (IntraMAPK micropipettes) marked at every 4 μl volume. Cochlear fluid and DEX standard samples were diluted 1:11 with artificial perilymph, and each mixture was diluted again 1:3 with 50% MeOH. All samples were analyzed using an operator system (QTRAP 6500) with a UHPLC/Tandem mass spectrometer (QTRAP 6500 Low Mass BL210251506) to measure the DEX concentration in the perilymph by LC-MS/MS. […]

Structure (SMILES): C[C@@H]1C[C@H]2[C@@H]3CCC4=CC(=O)C=C[C@]4(C)[C@@]3(F)[C@@H](O)C[C@]2(C)[C@@]1(O)C(=O)COP(=O)([O-])[O-].[Na+].[Na+] [DSP, DEX phosphate disodium salt]
- initial DEX concentration in perilymph compared between groups (30 minutes after administration): highest initial concentration
- DEX concentration in perilymph (90 minutes after administration): decreased
- DEX concentration in perilymph (after 3 hours): not detected
- DEX concentration in perilymph fluid (starting 30 minutes after intratympanic injection, drug 0.5 wt %): significant DEX concentrations were detected
